Data taken from PMC5740175.

What was measured:
[1] = biological target: T1, IRP1 (iron regulatory protein 1) (UniProt P21399); assay: competition EMSA; conditions: no significant competition at 80-fold excess against labeled WT probe, no Kd could be fitted, heparin; 25 mM Tris/HCl pH 7.4, 40 mM KCl, 1% Triton X-100, protease inhibitor (EDTA-free); 200 ng IRP1, 100 ng labeled probe; 15 min room temperature, then 50 ng heparin 10 min; recombinant protein; probe letters rebuilt from the primers and the genome; part of a longer molecule
T1 sequence (looked up, limits assumed): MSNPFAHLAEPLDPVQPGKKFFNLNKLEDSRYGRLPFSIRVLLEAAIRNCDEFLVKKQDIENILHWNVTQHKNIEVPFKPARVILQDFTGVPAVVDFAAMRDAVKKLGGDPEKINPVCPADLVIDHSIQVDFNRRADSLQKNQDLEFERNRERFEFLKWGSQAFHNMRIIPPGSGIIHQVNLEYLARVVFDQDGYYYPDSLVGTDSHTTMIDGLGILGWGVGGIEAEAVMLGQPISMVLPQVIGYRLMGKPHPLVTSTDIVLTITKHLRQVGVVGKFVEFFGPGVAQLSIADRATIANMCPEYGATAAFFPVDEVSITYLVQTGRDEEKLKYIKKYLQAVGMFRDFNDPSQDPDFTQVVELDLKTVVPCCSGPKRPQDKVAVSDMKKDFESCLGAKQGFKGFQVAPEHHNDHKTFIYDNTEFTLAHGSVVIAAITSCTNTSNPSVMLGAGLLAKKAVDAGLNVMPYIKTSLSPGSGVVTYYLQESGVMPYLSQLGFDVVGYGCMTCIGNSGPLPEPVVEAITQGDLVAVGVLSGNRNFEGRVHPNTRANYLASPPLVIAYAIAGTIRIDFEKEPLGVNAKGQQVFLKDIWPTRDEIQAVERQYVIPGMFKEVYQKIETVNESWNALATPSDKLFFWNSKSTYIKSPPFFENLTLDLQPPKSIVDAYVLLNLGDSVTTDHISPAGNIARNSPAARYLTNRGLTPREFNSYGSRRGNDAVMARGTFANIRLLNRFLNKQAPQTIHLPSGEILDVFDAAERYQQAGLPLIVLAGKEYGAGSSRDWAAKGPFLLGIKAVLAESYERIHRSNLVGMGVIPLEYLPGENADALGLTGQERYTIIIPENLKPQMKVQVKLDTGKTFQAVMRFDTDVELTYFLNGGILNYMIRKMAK

[2] = biological target: T1, IRP1 (iron regulatory protein 1); assay: EMSA; conditions: direct, minimal binding, reduction of almost 95%, mean of 4, heparin; 25 mM Tris/HCl pH 7.4, 40 mM KCl, 1% Triton X-100, protease inhibitor (EDTA-free); 200 ng IRP1, 100 ng labeled probe; 15 min room temperature, then 50 ng heparin 10 min; recombinant protein; probe letters rebuilt from the primers and the genome; part of a longer molecule

Sequence: CGGUCCCGCGGGUCUGUCUCUUGCUUCAAAGUGUUUGGACGGAACAGAUCCGGGGACU [FTL 5' IRE +39ΔC]
- binding result [1]: no binding
- binding signal (% of WT bound) [2]: 5

Construct, isoform or probe ends are uncertain for at least one entry. For some assays here: No signal at the amounts used counts as a negative. Protein sequences can lack the tags named with them.
